Source: the supplement of paper PMC6411743
± gives the standard deviation of the averaged measurements. Some of the results follow.

Amino acid sequences for entries named in this document (tags omitted). A change or cut given only in a name is not applied to a line headed by its entry.
UniProt P13995: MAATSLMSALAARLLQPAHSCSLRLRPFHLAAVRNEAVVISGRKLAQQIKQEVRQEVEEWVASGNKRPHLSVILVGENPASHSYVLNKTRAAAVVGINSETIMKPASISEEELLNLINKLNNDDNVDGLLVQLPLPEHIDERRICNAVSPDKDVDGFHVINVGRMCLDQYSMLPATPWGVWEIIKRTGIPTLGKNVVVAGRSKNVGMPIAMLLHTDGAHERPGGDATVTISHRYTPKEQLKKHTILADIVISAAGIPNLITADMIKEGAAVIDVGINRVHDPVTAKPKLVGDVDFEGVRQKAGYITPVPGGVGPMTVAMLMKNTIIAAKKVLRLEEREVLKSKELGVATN
UniProt P14649: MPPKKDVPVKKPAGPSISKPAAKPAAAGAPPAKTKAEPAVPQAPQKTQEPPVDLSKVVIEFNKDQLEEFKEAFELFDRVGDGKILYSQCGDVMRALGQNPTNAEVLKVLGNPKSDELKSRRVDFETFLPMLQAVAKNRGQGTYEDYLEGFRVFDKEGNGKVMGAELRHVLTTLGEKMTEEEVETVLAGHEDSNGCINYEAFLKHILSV
UniProt P12004, whole entry: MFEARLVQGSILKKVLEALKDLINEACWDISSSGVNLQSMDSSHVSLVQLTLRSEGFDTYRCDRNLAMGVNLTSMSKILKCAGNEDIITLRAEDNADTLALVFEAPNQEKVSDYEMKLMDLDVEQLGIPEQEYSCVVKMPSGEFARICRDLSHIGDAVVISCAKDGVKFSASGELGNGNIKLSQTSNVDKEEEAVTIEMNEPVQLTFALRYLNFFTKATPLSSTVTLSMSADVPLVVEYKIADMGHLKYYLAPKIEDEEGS
UniProt P25325: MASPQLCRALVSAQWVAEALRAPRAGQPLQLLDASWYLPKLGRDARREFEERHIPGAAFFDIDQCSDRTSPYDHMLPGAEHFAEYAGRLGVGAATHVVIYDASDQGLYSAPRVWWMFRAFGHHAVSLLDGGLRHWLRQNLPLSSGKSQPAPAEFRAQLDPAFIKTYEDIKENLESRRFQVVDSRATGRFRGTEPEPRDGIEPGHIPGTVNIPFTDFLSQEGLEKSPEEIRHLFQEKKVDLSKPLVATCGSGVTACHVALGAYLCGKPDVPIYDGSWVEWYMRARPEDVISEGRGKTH
UniProt P16383: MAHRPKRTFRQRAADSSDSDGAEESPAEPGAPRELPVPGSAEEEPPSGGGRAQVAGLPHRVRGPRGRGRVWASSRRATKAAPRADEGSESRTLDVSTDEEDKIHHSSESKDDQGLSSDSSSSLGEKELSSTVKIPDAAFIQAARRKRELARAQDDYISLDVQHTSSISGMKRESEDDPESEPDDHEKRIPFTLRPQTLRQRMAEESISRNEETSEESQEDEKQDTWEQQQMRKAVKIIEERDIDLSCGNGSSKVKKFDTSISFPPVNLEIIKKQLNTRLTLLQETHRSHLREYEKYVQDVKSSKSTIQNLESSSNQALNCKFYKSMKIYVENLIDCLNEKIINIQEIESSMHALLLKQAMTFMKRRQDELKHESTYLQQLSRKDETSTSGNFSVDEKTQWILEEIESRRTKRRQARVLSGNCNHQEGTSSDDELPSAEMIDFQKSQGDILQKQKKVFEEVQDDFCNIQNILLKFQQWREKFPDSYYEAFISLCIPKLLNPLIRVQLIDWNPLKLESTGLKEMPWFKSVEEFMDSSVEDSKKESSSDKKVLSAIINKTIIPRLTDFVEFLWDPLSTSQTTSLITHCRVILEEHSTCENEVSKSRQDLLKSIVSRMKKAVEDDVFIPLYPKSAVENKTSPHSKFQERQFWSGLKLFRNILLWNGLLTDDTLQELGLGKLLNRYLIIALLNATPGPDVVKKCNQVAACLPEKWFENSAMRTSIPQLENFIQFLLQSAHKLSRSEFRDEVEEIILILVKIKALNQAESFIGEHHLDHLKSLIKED
UniProt P15260: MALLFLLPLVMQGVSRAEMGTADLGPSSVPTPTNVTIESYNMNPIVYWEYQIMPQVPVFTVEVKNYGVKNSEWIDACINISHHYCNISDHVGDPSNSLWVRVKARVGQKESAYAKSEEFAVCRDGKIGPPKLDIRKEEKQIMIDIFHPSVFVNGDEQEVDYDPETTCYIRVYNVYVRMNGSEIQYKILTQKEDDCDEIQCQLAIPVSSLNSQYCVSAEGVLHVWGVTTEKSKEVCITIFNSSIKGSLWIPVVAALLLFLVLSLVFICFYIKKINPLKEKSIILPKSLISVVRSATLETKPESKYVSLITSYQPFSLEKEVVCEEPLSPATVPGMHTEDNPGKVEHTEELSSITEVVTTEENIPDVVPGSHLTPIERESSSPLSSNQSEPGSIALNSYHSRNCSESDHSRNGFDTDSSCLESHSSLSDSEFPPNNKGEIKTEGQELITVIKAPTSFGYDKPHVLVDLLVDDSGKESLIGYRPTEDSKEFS
UniProt P0CAP2, whole entry, looked up: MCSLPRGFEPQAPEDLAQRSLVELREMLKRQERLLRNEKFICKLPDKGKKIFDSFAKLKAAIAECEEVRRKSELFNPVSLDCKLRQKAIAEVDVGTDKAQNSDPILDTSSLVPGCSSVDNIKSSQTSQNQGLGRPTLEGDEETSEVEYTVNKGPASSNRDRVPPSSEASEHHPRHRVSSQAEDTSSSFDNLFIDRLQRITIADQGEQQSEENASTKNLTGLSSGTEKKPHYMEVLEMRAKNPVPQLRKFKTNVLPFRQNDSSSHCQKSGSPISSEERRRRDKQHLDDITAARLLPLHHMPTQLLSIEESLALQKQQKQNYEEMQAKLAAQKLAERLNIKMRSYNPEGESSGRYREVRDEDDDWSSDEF
UniProt P09543: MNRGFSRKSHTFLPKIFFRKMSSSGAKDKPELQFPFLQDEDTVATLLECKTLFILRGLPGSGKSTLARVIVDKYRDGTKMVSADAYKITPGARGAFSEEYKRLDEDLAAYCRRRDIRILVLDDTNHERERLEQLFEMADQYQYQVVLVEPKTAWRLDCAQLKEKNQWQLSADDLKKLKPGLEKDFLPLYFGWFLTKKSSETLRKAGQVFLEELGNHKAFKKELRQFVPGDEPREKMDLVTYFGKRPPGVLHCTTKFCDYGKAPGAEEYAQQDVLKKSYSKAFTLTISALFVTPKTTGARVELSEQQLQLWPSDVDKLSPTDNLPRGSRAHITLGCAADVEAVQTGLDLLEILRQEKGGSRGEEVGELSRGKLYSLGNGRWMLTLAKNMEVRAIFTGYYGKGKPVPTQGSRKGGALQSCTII
UniProt P19838: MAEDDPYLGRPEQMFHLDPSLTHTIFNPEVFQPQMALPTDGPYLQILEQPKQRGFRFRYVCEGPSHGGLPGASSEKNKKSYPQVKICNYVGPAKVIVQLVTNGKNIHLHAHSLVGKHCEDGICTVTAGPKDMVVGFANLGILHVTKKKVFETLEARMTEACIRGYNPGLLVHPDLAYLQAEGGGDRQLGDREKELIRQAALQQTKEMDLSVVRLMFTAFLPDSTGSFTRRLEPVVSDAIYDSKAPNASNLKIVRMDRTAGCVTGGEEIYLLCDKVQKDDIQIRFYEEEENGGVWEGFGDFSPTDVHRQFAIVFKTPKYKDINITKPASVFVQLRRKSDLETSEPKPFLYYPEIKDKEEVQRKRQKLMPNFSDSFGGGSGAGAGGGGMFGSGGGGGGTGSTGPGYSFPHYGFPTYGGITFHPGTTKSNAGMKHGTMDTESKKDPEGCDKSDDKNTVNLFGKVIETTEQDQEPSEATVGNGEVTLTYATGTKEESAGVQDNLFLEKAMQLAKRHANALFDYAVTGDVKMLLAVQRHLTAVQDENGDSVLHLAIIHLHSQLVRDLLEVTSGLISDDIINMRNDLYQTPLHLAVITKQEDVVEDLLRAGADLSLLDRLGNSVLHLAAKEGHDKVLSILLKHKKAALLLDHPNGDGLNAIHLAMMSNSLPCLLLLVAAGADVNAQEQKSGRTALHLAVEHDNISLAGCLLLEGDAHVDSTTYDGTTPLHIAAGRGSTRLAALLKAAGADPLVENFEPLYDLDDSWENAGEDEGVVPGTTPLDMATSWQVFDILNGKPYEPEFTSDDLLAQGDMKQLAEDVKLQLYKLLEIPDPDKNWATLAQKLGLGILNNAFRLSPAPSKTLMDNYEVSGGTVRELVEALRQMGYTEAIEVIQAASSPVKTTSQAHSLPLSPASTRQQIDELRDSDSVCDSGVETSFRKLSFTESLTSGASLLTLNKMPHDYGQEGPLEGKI
UniProt P25789: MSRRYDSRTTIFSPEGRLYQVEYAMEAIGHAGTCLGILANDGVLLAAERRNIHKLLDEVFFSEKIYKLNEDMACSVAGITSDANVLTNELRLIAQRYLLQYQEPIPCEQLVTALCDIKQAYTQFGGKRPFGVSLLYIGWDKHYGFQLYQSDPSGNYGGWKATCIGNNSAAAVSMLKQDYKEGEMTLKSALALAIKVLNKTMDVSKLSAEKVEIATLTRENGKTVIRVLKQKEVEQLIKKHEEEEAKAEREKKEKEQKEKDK
UniProt P09471, whole entry, looked up: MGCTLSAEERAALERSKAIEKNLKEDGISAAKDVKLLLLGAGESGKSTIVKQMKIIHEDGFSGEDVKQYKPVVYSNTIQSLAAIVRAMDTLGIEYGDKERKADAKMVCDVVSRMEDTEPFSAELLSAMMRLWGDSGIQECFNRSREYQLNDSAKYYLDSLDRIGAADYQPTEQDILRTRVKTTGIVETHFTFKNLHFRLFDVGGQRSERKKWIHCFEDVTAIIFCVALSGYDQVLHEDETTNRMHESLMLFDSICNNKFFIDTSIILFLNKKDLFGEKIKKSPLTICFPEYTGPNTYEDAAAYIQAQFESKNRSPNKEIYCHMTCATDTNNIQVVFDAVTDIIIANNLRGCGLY
UniProt P25788: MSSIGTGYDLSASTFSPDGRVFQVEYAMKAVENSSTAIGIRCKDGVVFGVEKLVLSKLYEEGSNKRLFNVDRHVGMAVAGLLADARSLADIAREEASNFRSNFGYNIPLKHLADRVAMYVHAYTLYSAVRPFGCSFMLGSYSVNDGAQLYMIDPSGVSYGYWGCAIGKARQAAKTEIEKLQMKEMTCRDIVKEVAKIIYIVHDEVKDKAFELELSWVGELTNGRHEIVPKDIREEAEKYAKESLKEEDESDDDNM
UniProt P17028: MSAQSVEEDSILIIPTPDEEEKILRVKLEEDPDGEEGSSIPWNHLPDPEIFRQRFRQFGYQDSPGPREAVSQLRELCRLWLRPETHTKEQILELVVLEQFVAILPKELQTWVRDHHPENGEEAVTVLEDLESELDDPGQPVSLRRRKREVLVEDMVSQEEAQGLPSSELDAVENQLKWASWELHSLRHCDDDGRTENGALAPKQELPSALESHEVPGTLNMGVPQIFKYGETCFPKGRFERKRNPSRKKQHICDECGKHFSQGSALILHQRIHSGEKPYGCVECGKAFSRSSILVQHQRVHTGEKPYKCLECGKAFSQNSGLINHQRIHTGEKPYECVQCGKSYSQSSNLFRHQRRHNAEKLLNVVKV
UniProt P07195, whole entry, looked up: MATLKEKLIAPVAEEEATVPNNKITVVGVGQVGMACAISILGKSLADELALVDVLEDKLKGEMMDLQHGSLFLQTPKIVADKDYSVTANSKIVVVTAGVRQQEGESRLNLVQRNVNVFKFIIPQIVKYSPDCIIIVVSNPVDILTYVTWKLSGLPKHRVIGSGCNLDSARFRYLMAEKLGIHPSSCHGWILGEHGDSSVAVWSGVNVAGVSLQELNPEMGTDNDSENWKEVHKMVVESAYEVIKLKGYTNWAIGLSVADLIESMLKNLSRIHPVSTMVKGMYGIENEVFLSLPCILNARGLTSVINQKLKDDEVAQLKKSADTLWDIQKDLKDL
UniProt P17029: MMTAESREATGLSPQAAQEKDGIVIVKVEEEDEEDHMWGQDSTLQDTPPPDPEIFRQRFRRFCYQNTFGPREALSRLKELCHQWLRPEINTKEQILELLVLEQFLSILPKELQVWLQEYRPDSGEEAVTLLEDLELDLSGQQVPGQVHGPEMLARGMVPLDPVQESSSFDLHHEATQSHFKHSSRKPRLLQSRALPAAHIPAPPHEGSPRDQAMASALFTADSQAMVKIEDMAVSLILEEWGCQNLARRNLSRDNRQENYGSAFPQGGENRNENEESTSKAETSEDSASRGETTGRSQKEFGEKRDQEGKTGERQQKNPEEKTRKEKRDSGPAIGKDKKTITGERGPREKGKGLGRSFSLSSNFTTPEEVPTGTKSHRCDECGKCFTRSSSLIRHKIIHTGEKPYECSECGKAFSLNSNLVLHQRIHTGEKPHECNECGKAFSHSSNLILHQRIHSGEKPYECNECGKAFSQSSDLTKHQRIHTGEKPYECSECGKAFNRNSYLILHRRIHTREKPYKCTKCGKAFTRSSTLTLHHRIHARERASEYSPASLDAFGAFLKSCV
UniProt P08758: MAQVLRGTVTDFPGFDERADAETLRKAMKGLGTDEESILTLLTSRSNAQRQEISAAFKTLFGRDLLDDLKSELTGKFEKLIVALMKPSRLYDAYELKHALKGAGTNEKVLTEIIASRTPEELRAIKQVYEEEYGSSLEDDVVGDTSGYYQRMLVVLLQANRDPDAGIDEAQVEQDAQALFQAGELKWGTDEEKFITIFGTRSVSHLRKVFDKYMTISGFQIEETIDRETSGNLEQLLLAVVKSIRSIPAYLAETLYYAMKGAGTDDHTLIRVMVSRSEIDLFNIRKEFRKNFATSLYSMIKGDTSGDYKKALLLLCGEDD

Compound: Nc1nc2c(ncn2[C@@H]2O[C@H](COP(=O)(O)OP(=O)(O)OP(=O)(O)O)[C@@H](O)[C@H]2O)c(=O)[nH]1 [guanosine triphosphate]
Experiment: NP40-soluble protein abundance relative to vehicle (solubility fold change) (ratio); higher = more soluble protein in presence of GTP
Procedure, shortened: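 Crude Jurkat lysate, prepared by Dounce homogenisation, was exposed to eight concentrations from 0.1 to 10 mM for 10 min at room temperature and then 3 min at 37 °C. Solubilisation used 0.8% NP40 with benzonase for 60 min at 4 °C, followed by ultracentrifugation and TMT labelling of the supernatant for LC-MS/MS. After vsn normalisation of intensities, each value is the fold change against the detergent-processed vehicle within each replicate, across three independent experiments.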

| Target | NP40-soluble protein abundance (concentration: 0.1mM) | NP40-soluble protein abundance (concentration: 0.5mM) | NP40-soluble protein abundance (concentration: 1mM) | NP40-soluble protein abundance (concentration: 2mM) | NP40-soluble protein abundance (concentration: 4mM) | NP40-soluble protein abundance (concentration: 6mM) | NP40-soluble protein abundance (concentration: 8mM) | NP40-soluble protein abundance (concentration: 10mM) |
| --- | --- | --- | --- | --- | --- | --- | --- | --- |
| MTHFD2 (UniProt P13995) | 1.01 ± 0.029 | 0.9845 ± 0.0074 | 0.976 ± 0.052 | 0.934 ± 0.05 | 0.95 ± 0.075 | 0.928 ± 0.055 | 0.956 ± 0.058 | 0.923 ± 0.058 |
| UniProt P10155 and related entries | 1.08 ± 0.086 | 1.09 ± 0.13 | 0.932 ± 0.047 | 0.968 ± 0.12 | 0.948 ± 0.087 | 0.931 ± 0.068 | 0.905 ± 0.024 | 0.863 ± 0.094 |
| UniProt P14649 and related entries | 0.947 ± 0.091 | 0.976 ± 0.037 | 1.12 ± 0.12 | 1.08 ± 0.032 | 1.09 ± 0.056 | 1.11 ± 0.055 | 1.11 ± 0.1 | 1.23 ± 0.15 |
| HIST1H1B (UniProt P16401) | 0.956 ± 0.023 | 0.937 ± 0.02 | 1.09 ± 0.037 | 1.15 ± 0.014 | 1.22 ± 0.042 | 1.272 ± 0.012 | 1.22 ± 0.039 | 1.73 ± 0.19 |
| UniProt P23469 and related entries | 1 ± 0.14 | 1 ± 0.14 | 0.868 ± 0.2 | 0.86 ± 0.094 | 0.884 ± 0.096 | 0.991 ± 0.23 | 0.843 ± 0.16 | 0.88 ± 0.15 |
| PCNA (UniProt P12004) | 0.949 ± 0.021 | 0.961 ± 0.015 | 0.933 ± 0.031 | 0.895 ± 0.044 | 0.868 ± 0.051 | 0.899 ± 0.052 | 0.879 ± 0.032 | 0.862 ± 0.049 |
| UniProt P25325 and related entries | 0.979 ± 0.02 | 1 ± 0.06 | 0.98 ± 0.05 | 0.98 ± 0.066 | 0.938 ± 0.054 | 0.966 ± 0.074 | 0.963 ± 0.046 | 0.977 ± 0.038 |
| GAA (UniProt P10253) | 0.977 ± 0.014 | 0.955 ± 0.046 | 0.924 ± 0.02 | 0.9345 ± 0.0053 | 0.913 ± 0.035 | 0.902 ± 0.012 | 0.934 ± 0.05 | 0.898 ± 0.022 |
| UniProt P16383 and related entries | 0.979 ± 0.015 | 1.05 ± 0.059 | 1.03 ± 0.038 | 1.06 ± 0.019 | 1.088 ± 0.0062 | 1.06 ± 0.0047 | 1.09 ± 0.032 | 1.11 ± 0.044 |
| UniProt P20073 and related entries | 0.945 ± 0.019 | 0.897 ± 0.047 | 0.915 ± 0.058 | 0.895 ± 0.052 | 0.897 ± 0.046 | 0.884 ± 0.059 | 0.851 ± 0.09 | 0.876 ± 0.074 |
| IFNGR1 (UniProt P15260) | 0.993 ± 0.018 | 0.99 ± 0.055 | 1.03 ± 0.052 | 0.993 ± 0.078 | 0.957 ± 0.05 | 0.956 ± 0.064 | 0.963 ± 0.033 | 0.969 ± 0.057 |
| UniProt P07954-2 | 0.94 ± 0.039 | 0.956 ± 0.039 | 0.916 ± 0.038 | 0.903 ± 0.034 | 0.873 ± 0.018 | 0.909 ± 0.028 | 0.89 ± 0.04 | 0.888 ± 0.047 |
| CD53 (UniProt P19397) | 0.92 ± 0.025 | 0.964 ± 0.016 | 0.971 ± 0.013 | 0.965 ± 0.034 | 0.896 ± 0.054 | 0.957 ± 0.037 | 0.869 ± 0.06 | 0.933 ± 0.053 |
| UniProt P0CAP2 and related entries | 1.04 ± 0.025 | 1.06 ± 0.022 | 1.12 ± 0.054 | 1.12 ± 0.041 | 1.12 ± 0.056 | 1.15 ± 0.062 | 1.19 ± 0.1 | 1.2 ± 0.097 |
| UniProt P16989 and related entries | 0.947 ± 0.022 | 0.912 ± 0.069 | 0.997 ± 0.047 | 0.903 ± 0.066 | 0.813 ± 0.078 | 0.783 ± 0.093 | 0.747 ± 0.062 | 0.697 ± 0.11 |
| UniProt P09543 and related entries | 1.06 ± 0.042 | 1.1 ± 0.087 | 1.04 ± 0.051 | 1.02 ± 0.051 | 1.01 ± 0.02 | 0.992 ± 0.044 | 0.963 ± 0.018 | 0.921 ± 0.051 |
| UniProt P19838 and related entries | 1.01 ± 0.041 | 1.04 ± 0.033 | 0.99 ± 0.027 | 0.977 ± 0.031 | 0.943 ± 0.018 | 0.954 ± 0.04 | 0.955 ± 0.0048 | 0.929 ± 0.026 |
| PSMA4 (UniProt P25789) | 0.999 ± 0.016 | 1.04 ± 0.062 | 1 ± 0.067 | 1.03 ± 0.14 | 1.04 ± 0.14 | 1.05 ± 0.17 | 1.02 ± 0.14 | 0.991 ± 0.14 |
| SRM (UniProt P19623) | 0.979 ± 0.029 | 0.982 ± 0.024 | 0.934 ± 0.031 | 0.918 ± 0.066 | 0.912 ± 0.078 | 0.903 ± 0.062 | 0.876 ± 0.068 | 0.864 ± 0.11 |
| UniProt P25685 and related entries | 0.959 ± 0.024 | 0.966 ± 0.028 | 0.929 ± 0.039 | 0.887 ± 0.048 | 0.871 ± 0.047 | 0.896 ± 0.053 | 0.906 ± 0.034 | 0.876 ± 0.05 |
| UniProt P09471-2 | 1.02 ± 0.11 | 1.05 ± 0.05 | 0.945 ± 0.13 | 1.01 ± 0.085 | 0.9 ± 0.047 | 0.973 ± 0.035 | 0.883 ± 0.12 | 0.914 ± 0.066 |
| UniProt P25788 and related entries | 1.04 ± 0.05 | 1.03 ± 0.1 | 1.01 ± 0.11 | 1.04 ± 0.17 | 1.06 ± 0.17 | 1.06 ± 0.18 | 1.03 ± 0.13 | 0.992 ± 0.17 |
| UniProt P12931 and related entries | 1.05 ± 0.05 | 1.05 ± 0.063 | 0.955 ± 0.018 | 0.9845 ± 0.0092 | 0.905 ± 0.063 | 0.896 ± 0.015 | 0.894 ± 0.052 | 0.837 ± 0.074 |
| ZNF24 (UniProt P17028) | 1 ± 0.12 | 1.01 ± 0.062 | 1.02 ± 0.11 | 1.02 ± 0.097 | 1.03 ± 0.11 | 1.03 ± 0.058 | 1.05 ± 0.086 | 1.07 ± 0.07 |
| LDHB (UniProt P07195) | 0.965 ± 0.028 | 0.983 ± 0.013 | 0.942 ± 0.032 | 0.887 ± 0.021 | 0.876 ± 0.04 | 0.892 ± 0.015 | 0.876 ± 0.028 | 0.856 ± 0.042 |
| TUBG1 (UniProt P23258) | 1.08 ± 0.056 | 1.12 ± 0.1 | 1.17 ± 0.17 | 1.28 ± 0.21 | 1.33 ± 0.24 | 1.32 ± 0.25 | 1.28 ± 0.19 | 1.27 ± 0.21 |
| UniProt P13051 and related entries | 0.9724 ± 0.0086 | 0.946 ± 0.019 | 0.944 ± 0.073 | 0.91 ± 0.062 | 0.886 ± 0.075 | 0.892 ± 0.07 | 0.893 ± 0.036 | 0.863 ± 0.1 |
| ZKSCAN1 (UniProt P17029) | 0.9748 ± 0.0051 | 0.986 ± 0.034 | 0.987 ± 0.047 | 0.958 ± 0.024 | 0.963 ± 0.015 | 0.978 ± 0.026 | 1 ± 0.075 | 0.993 ± 0.041 |
| CHM (UniProt P24386) | 1.02 ± 0.072 | 1.03 ± 0.072 | 0.904 ± 0.011 | 0.895 ± 0.11 | 0.958 ± 0.046 | 0.94 ± 0.018 | 0.847 ± 0.069 | 0.875 ± 0.037 |
| ANXA5 (UniProt P08758) | 0.882 ± 0.07 | 0.908 ± 0.054 | 0.878 ± 0.077 | 0.854 ± 0.076 | 0.819 ± 0.073 | 0.843 ± 0.089 | 0.794 ± 0.081 | 0.809 ± 0.085 |

A section of the results above, as a working copy:

| Target | NP40-soluble protein abundance (concentration: 0.1mM) | NP40-soluble protein abundance (concentration: 0.5mM) | NP40-soluble protein abundance (concentration: 1mM) | NP40-soluble protein abundance (concentration: 2mM) | NP40-soluble protein abundance (concentration: 4mM) | NP40-soluble protein abundance (concentration: 6mM) | NP40-soluble protein abundance (concentration: 8mM) | NP40-soluble protein abundance (concentration: 10mM) |
| --- | --- | --- | --- | --- | --- | --- | --- | --- |
| UniProt P07954-2 | 0.94 ± 0.039 | 0.956 ± 0.039 | 0.916 ± 0.038 | 0.903 ± 0.034 | 0.873 ± 0.018 | 0.909 ± 0.028 | 0.89 ± 0.04 | 0.888 ± 0.047 |
| CD53 (UniProt P19397) | 0.92 ± 0.025 | 0.964 ± 0.016 | 0.971 ± 0.013 | 0.965 ± 0.034 | 0.896 ± 0.054 | 0.957 ± 0.037 | 0.869 ± 0.06 | 0.933 ± 0.053 |
| UniProt P0CAP2 and related entries | 1.04 ± 0.025 | 1.06 ± 0.022 | 1.12 ± 0.054 | 1.12 ± 0.041 | 1.12 ± 0.056 | 1.15 ± 0.062 | 1.19 ± 0.1 | 1.2 ± 0.097 |
| UniProt P16989 and related entries | 0.947 ± 0.022 | 0.912 ± 0.069 | 0.997 ± 0.047 | 0.903 ± 0.066 | 0.813 ± 0.078 | 0.783 ± 0.093 | 0.747 ± 0.062 | 0.697 ± 0.11 |
| UniProt P09543 and related entries | 1.06 ± 0.042 | 1.1 ± 0.087 | 1.04 ± 0.051 | 1.02 ± 0.051 | 1.01 ± 0.02 | 0.992 ± 0.044 | 0.963 ± 0.018 | 0.921 ± 0.051 |
| UniProt P19838 and related entries | 1.01 ± 0.041 | 1.04 ± 0.033 | 0.99 ± 0.027 | 0.977 ± 0.031 | 0.943 ± 0.018 | 0.954 ± 0.04 | 0.955 ± 0.0048 | 0.929 ± 0.026 |
| PSMA4 (UniProt P25789) | 0.999 ± 0.016 | 1.04 ± 0.062 | 1 ± 0.067 | 1.03 ± 0.14 | 1.04 ± 0.14 | 1.05 ± 0.17 | 1.02 ± 0.14 | 0.991 ± 0.14 |
| SRM (UniProt P19623) | 0.979 ± 0.029 | 0.982 ± 0.024 | 0.934 ± 0.031 | 0.918 ± 0.066 | 0.912 ± 0.078 | 0.903 ± 0.062 | 0.876 ± 0.068 | 0.864 ± 0.11 |
